# Results from paper PMC6877725, “Identification of the periplasmic DNA receptor for natural transformation of Helicobacter pylori”.
# No signal at the amounts used counts as a negative.
# Molecular target: MBP (UniProt P0AEX9)
# Experiment: EMSA
# Conditions: EMSA: 10 mM Tris-HCl pH 7.5, 50 mM KCl, ~100 mM NaCl, 0.1 mM MgCl2, 1 mM DTT, 0.1 µg/µl BSA, on ice 30 min; recombinant protein; label: 5'-Cy5 on strand 1
sequence,measurement,value
TAGCATCGATCAGTCCTC (double strand) [18 bp dsDNA (Cy5-PNK1 + cPNK1)],binding result,no binding
